PubChem BioAssay AID1224828, NIAID | 2016

- Screen: 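Knock-downs that increase or decrease LPS-induced p65 nuclear translocation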 (primary screen)
- Cells: mouse RAW264.7 G9 macrophage reporter cells (GFP-p65, Tnf promoter-mCherry)
- Reagent: siRNA pool against mouse genes, 100 nM
- Duration: 2 days siRNA transfection, then 40 min LPS before fixation
- Challenge: LPS (Salmonella minnesota R595) at 10 ng/ml
- Read-out: 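Imaged p65 nuclear translocation ratio, normalised to the plate median, converted to robust z-scores and averaged across two replicates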
- Reading the numbers: p65 translocation robust z-score: higher = more nuclear NF-kappaB p65 after LPS than the plate median; nuclear/cytoplasmic p65 ratio: higher = more nuclear NF-kappaB p65
- Active means: 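Active if robust z is above 3.3 (negative regulators) or below -1.56, the Tlr4 control median (positive regulators); activity score 50 or more; control wells not called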
- Calls: active = hit (p65 shift raised or lowered); inactive = no clear change
Shown is a random part of about 17,000 deposited reagents. 762 of them (4.5%) count as active. 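Active calls include both raised and lowered p65 entry, mostly lowered; wells with fewer than 50 cells lack a z-score.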 Raw values vary from plate to plate and are shown uncorrected.

With knock-down of Nudt15 (nudix hydrolase 15), the record shows p65 translocation robust z-score 1.67; nuclear/cytoplasmic p65 ratio, rep 1 = 1.98; nuclear/cytoplasmic p65 ratio, rep 2 = 1.77; low cell count flag enough cells to score; inactive.
Against Kcns2 (K+ voltage-gated channel, subfamily S, 2) the deposit lists p65 translocation robust z-score -0.77; nuclear/cytoplasmic p65 ratio, rep 1 = 1.37; nuclear/cytoplasmic p65 ratio, rep 2 = 1.28; low cell count flag enough cells to score; inactive.
Depletion of Sema4a gave: p65 translocation robust z-score -0.38; nuclear/cytoplasmic p65 ratio, rep 1 = 1.41; nuclear/cytoplasmic p65 ratio, rep 2 = 1.17; low cell count flag enough cells to score; inactive.
For Psmb2 (proteasome (prosome, macropain) subunit, beta type 2), the entry reads nuclear/cytoplasmic p65 ratio, rep 1 = 1.27; nuclear/cytoplasmic p65 ratio, rep 2 = 1.08; low cell count flag fewer than 50 cells per well; well left out of scoring; inactive.
For Otof (otoferlin) the deposit lists nuclear/cytoplasmic p65 ratio, rep 1 = 1.49; nuclear/cytoplasmic p65 ratio, rep 2 = 1.34; low cell count flag fewer than 50 cells per well; well left out of scoring; inactive.
Clcn5 (chloride channel, voltage-sensitive 5) showed p65 translocation robust z-score -0.94; nuclear/cytoplasmic p65 ratio, rep 1 = 1.34; nuclear/cytoplasmic p65 ratio, rep 2 = 1.26; low cell count flag enough cells to score; inactive.
Depletion of Eeig1 (estrogen-induced osteoclastogenesis regulator 1) resulted in: nuclear/cytoplasmic p65 ratio, rep 1 = 1.39; nuclear/cytoplasmic p65 ratio, rep 2 = 1.55; low cell count flag fewer than 50 cells per well; well left out of scoring; inactive.
Rrm1 (ribonucleotide reductase M1) showed nuclear/cytoplasmic p65 ratio, rep 1 = 0; nuclear/cytoplasmic p65 ratio, rep 2 = 0.981; low cell count flag fewer than 50 cells per well; well left out of scoring; inactive.
With knock-down of Csk (c-src tyrosine kinase), the record shows p65 translocation robust z-score 1.17; nuclear/cytoplasmic p65 ratio, rep 1 = 1.55; nuclear/cytoplasmic p65 ratio, rep 2 = 1.53; low cell count flag enough cells to score; inactive.
Depletion of Mybpc2 (myosin binding protein C, fast-type) gave: p65 translocation robust z-score -0.29; nuclear/cytoplasmic p65 ratio, rep 1 = 1.74; nuclear/cytoplasmic p65 ratio, rep 2 = 1.55; low cell count flag enough cells to score; inactive.
Against Atg5 (autophagy related 5), the entry reads p65 translocation robust z-score -0.09; nuclear/cytoplasmic p65 ratio, rep 1 = 1.65; nuclear/cytoplasmic p65 ratio, rep 2 = 1.56; low cell count flag enough cells to score; inactive.
For Smarca2, the entry reads p65 translocation robust z-score 0.61; nuclear/cytoplasmic p65 ratio, rep 1 = 1.57; nuclear/cytoplasmic p65 ratio, rep 2 = 1.71; low cell count flag enough cells to score; inactive.

2 entries from above in another layout:
Eeig1 (estrogen-induced osteoclastogenesis regulator 1)
- nuclear/cytoplasmic p65 ratio, rep 1: 1.39
- nuclear/cytoplasmic p65 ratio, rep 2: 1.55
- low cell count flag: fewer than 50 cells per well; well left out of scoring
- Call: inactive

Rrm1 (ribonucleotide reductase M1)
- nuclear/cytoplasmic p65 ratio, rep 1: 0
- nuclear/cytoplasmic p65 ratio, rep 2: 0.981
- low cell count flag: fewer than 50 cells per well; well left out of scoring
- Call: inactive
